{"source": "paper PMC5996148", "assay_in_all_cases": "protein microarray (ProtoArray v5.0), streptavidin-Alexa Fluor 647", "details_in_all_cases": "3'-biotin; 20 mM Tris (pH 7.5), 5 mM MgCl2, 100 mM KCl, 0.1% Tween-20, A/T-rich and random oligonucleotide blockers; temperature not stated; high values mean tight binding", "key": {"ZNF765 (human)": {"tested_on": "ZNF765 (human)"}, "ZSCAN18 (human)": {"tested_on": "ZSCAN18 (human)"}, "ZW10": {"molecular_target": "T1, ZW10 (UniProt O43264)", "T1 sequence": "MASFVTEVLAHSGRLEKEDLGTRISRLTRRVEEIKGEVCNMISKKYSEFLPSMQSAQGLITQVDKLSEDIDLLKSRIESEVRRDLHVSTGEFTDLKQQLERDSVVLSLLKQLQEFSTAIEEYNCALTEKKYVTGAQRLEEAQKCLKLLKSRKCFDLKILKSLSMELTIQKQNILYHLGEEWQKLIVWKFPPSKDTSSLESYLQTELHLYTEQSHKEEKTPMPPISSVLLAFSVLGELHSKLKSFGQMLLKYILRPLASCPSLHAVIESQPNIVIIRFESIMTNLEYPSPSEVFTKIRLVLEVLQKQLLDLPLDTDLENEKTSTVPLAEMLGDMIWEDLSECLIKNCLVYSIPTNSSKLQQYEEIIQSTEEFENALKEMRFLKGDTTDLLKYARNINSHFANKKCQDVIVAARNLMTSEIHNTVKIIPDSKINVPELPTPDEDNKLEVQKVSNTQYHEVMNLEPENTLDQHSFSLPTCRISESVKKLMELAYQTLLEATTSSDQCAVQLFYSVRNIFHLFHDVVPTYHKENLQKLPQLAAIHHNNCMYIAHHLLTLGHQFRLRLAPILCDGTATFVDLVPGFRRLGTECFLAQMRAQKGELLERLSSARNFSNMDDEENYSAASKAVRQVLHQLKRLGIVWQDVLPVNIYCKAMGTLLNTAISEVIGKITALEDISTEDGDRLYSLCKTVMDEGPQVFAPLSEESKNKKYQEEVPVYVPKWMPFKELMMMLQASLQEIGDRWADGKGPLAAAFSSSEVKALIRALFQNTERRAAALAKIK"}, "ZWINT": {"molecular_target": "T2, ZWINT (UniProt O95229)", "T2 sequence": "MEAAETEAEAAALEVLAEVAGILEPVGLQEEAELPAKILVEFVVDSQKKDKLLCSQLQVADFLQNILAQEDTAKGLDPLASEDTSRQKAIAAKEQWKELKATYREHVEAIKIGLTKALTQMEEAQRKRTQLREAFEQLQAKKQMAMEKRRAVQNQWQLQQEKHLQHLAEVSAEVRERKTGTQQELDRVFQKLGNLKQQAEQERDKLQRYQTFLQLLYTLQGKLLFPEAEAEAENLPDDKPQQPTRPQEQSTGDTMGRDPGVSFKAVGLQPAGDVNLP"}, "[1]": {"tested_on": "Zinc finger BED domain-containing protein 1 (human)"}, "[2]": {"tested_on": "Zinc finger and SCAN domain-containing protein 2 (human)"}, "[3]": {"tested_on": "Zinc finger protein 655 (human)"}, "[4]": {"tested_on": "Zinc finger protein castor homolog 1 (human)"}, "[5]": {"tested_on": "Zinc transporter 7 (human)"}, "[6]": {"tested_on": "cAMP-dependent protein kinase inhibitor gamma (human)"}}, "note": "The other results are listed elsewhere or left out. For some of these results: The source does not settle which construct or isoform was used.", "data": [{"sequence": "GGTGACAGGGGTATGGGGAGGGG [G4-2 biotinylated (Ct1)]", "values": [{"measurement": "binding signal", "setting": "ZNF765 (human)", "result": -0.375, "unit": "z-score"}, {"measurement": "binding signal", "setting": "ZSCAN18 (human)", "result": -0.399, "unit": "z-score"}, {"measurement": "binding signal", "setting": "ZW10", "result": -0.372, "unit": "z-score"}, {"measurement": "binding signal", "setting": "ZWINT", "result": -0.385, "unit": "z-score"}, {"measurement": "binding signal", "setting": "[1]", "result": -0.396, "unit": "z-score"}, {"measurement": "binding signal", "setting": "[2]", "result": -0.386, "unit": "z-score"}, {"measurement": "binding signal", "setting": "[3]", "result": -0.398, "unit": "z-score"}, {"measurement": "binding signal", "setting": "[4]", "result": -0.403, "unit": "z-score"}, {"measurement": "binding signal", "setting": "[5]", "result": -0.366, "unit": "z-score"}, {"measurement": "binding signal", "setting": "[6]", "result": -0.403, "unit": "z-score"}]}]}
